Experimental data taken from PMC8924000.
Results are given in words; binding and its absence hold for the method and conditions named. In cells and extracts the contact can be indirect. Some entries that bind do so weakly or less than the wild type. Tags and fused reporters may be left off the sequences shown.

Protein sequences, listed by entry. Tags and fused reporters are not part of them.
UniProt P67809: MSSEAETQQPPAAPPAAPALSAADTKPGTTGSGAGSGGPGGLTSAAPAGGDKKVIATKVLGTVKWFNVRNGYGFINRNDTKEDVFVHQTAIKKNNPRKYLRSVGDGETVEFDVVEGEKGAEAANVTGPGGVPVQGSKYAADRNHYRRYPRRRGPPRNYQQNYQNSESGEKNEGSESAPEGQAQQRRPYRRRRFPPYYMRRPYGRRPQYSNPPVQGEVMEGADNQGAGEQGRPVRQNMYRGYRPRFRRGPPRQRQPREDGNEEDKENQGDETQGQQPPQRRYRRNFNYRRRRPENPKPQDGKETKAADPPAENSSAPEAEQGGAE

Legend:
[1] = target: T1, Flag-GSDMB (gasdermin B, wild type) (human) (UniProt Q8TAX9); assay: proximity ligation; Duolink in situ PLA in AsPC-1 cells (GSDME knockout, re-expressing Flag-tagged constructs) treated with PBS or trypsin/chymotrypsin for 48 h; anti-Flag and anti-YBX1 antibodies; fixed, permeabilised cells
T1 sequence: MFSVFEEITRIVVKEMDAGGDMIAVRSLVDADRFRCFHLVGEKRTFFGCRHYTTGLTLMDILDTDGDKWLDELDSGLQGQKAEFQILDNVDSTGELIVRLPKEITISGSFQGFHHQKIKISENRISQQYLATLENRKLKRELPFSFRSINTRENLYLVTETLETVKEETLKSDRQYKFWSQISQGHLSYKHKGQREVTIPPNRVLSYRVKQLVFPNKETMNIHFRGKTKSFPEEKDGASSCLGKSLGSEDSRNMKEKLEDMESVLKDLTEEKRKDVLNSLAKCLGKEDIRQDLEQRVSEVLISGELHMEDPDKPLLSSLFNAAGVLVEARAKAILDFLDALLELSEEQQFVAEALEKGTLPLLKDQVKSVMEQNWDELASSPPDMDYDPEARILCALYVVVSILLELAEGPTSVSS

[2] = target: T2, Flag-GSDME (gasdermin E, wild type) (human) (UniProt O60443); assay: as above
T2 sequence: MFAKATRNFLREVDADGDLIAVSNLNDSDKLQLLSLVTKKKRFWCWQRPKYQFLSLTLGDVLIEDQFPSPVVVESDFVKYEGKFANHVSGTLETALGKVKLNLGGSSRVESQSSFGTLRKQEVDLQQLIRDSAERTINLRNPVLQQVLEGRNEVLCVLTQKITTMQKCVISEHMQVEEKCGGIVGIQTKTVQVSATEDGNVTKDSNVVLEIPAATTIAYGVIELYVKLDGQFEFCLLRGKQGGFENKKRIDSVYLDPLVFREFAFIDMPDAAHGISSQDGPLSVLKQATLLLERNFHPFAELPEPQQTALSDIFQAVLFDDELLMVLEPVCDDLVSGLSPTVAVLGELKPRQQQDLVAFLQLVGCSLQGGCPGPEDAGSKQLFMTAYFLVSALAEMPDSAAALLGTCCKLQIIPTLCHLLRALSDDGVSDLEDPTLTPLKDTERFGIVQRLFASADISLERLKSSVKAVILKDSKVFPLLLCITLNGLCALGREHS

[3] = target: T2, Flag-GSDME (gasdermin E, wild type) (human); assay: co-IP; AsPC-1 cells treated with trypsin/chymotrypsin for 36 h; cytosolic or nuclear fraction immunoprecipitated with anti-Flag-GSDME antibody; YBX1 by western blot

For “Y-box-binding protein 1 (YBX1), endogenous (from UniProt P67809 1-324)”, the binding [1] was “no binding”, the binding [2] was “binds” and the binding [3] was “binds”.
